# Source: PubChem BioAssay AID1259405 (NCATS, 2018)
# Aim: 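Knock-downs that lift recombinant protein yield in hamster ovary cells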 (primary screen)
# Cell system: Chinese hamster CHO-K1 ovary cells with stable secreted eGFP expression
# Reagent: single siRNA against mouse genes, 0.8 pmol siRNA per well (2 µl of 400 nM stock)
# Timing: 3 days
# Measured: 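Percent of the per-plate non-targeting control median for intracellular GFP per well by laser scanning cytometry and for cell viability by ATP luminescence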
# Reading the numbers: GFP, % of control: higher = more GFP per well, higher productivity; viability (ATP), % of control: higher = more viable cells (more ATP)
# Rule for the call: 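Called active when intracellular GFP, relative to negative control, is at or above 120%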
# The whole screen tested about 50,000 reagents; shown is a part drawn at random. In the full data, about 4,000 (8%) were called active. 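Mouse siRNA library applied to hamster cells; one well for each siRNA.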 The numbers tell different reagents against one gene apart. No sequences are given here.
gene symbol,siRNA no.,"GFP, % of control","viability (ATP), % of control",call
Spag11a (GeneID 78128),1,63.1,61.9,inactive
Spag11a (GeneID 78128),2,85.1,65.5,inactive
Spag11a (GeneID 78128),3,127,98.3,active
H2-M10.2 (GeneID 333715),1,73.5,63.6,inactive
H2-M10.2 (GeneID 333715),2,104,74.2,inactive
H2-M10.2 (GeneID 333715),3,90.1,83.2,inactive
Ctsll3 (GeneID 70202),1,104,106,inactive
Ctsll3 (GeneID 70202),2,90.6,54.3,inactive
Ctsll3 (GeneID 70202),3,55.2,88.6,inactive
Fbxw8 (GeneID 231672),1,41.6,70.7,inactive
Fbxw8 (GeneID 231672),2,37.5,52,inactive
Fbxw8 (GeneID 231672),3,82.1,45.1,inactive
Sumo3 (GeneID 20610),1,71.2,48.2,inactive
Sumo3 (GeneID 20610),2,71.4,75.1,inactive
Sumo3 (GeneID 20610),3,96,95.1,inactive
Cdk5r1 (GeneID 12569),1,66.7,75.1,inactive
Cdk5r1 (GeneID 12569),2,88.7,122,inactive
Matcap2 (GeneID 68283),1,55.9,70.4,inactive
Matcap2 (GeneID 68283),2,79.4,77.1,inactive
Matcap2 (GeneID 68283),3,62.7,82.3,inactive
Pecam1 (GeneID 18613),1,55.1,74,inactive
Pecam1 (GeneID 18613),2,102,87.5,inactive
Tyw2 (GeneID 68260),1,71.5,34.8,inactive
Tyw2 (GeneID 68260),2,117,91.8,inactive
Tyw2 (GeneID 68260),3,68.7,61.1,inactive
Brd8 (GeneID 78656),1,74,107,inactive
Brd8 (GeneID 78656),2,68.2,59.3,inactive
Brd8 (GeneID 78656),3,131,132,active
Ddr2 (GeneID 18214),1,73,103,inactive
Ddr2 (GeneID 18214),2,61.6,75.2,inactive
Ddr2 (GeneID 18214),3,67.4,86.9,inactive
Zcrb1 (GeneID 67197),1,191,122,active
Zcrb1 (GeneID 67197),2,88.1,73.4,inactive
Zcrb1 (GeneID 67197),3,70.9,45.6,inactive

An excerpt from above, limited to “GFP, % of control”:
Ctsll3 (GeneID 70202) #3	55.2
Fbxw8 (GeneID 231672) #1	41.6
Fbxw8 (GeneID 231672) #2	37.5
Fbxw8 (GeneID 231672) #3	82.1
Sumo3 (GeneID 20610) #1	71.2

Next results:
gene symbol,siRNA no.,"GFP, % of control","viability (ATP), % of control",call
Pdxdc1 (GeneID 94184),1,47.1,30.3,inactive
Pdxdc1 (GeneID 94184),2,118,78.8,inactive
Pdxdc1 (GeneID 94184),3,71.7,85,inactive
Nlrp9c (GeneID 330490),1,76.9,96.6,inactive
Nlrp9c (GeneID 330490),2,65.7,83.2,inactive
Nlrp9c (GeneID 330490),3,79.6,46.3,inactive
Acox2 (GeneID 93732),1,133,86.6,active
Acox2 (GeneID 93732),2,86,68.5,inactive
Acox2 (GeneID 93732),3,84.4,89,inactive
Or8k3 (GeneID 259014),1,67.2,70.2,inactive
Or8k3 (GeneID 259014),2,95.6,53,inactive
Or8k3 (GeneID 259014),3,97.6,71.7,inactive
Mcm9 (GeneID 71567),1,62.8,66,inactive
Mcm9 (GeneID 71567),2,50.8,63.7,inactive
Mcm9 (GeneID 71567),3,98.9,86.2,inactive
Mcm9 (GeneID 71567),4,60.3,96.2,inactive
Mcm9 (GeneID 71567),5,53.9,59.3,inactive
Mcm9 (GeneID 71567),6,109,151,inactive
Ilk (GeneID 16202),1,85.1,91.4,inactive
Ilk (GeneID 16202),2,82.4,79.9,inactive
Ilk (GeneID 16202),3,86.9,95.7,inactive
Leap2 (GeneID 259301),1,53.2,79.6,inactive
Leap2 (GeneID 259301),2,33.3,16.4,inactive
Leap2 (GeneID 259301),3,82.5,59.5,inactive
